PubChem BioAssay AID1259405 – NCATS | 2018
Assay: 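Knock-downs that lift recombinant protein yield in hamster ovary cells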 (primary screen). Cells: Chinese hamster CHO-K1 ovary cells with stable secreted eGFP expression. Reagents: single siRNA against mouse genes, 0.8 pmol siRNA per well (2 µl of 400 nM stock). Timing: 3 days. Measurement: 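Percent of the per-plate non-targeting control median for intracellular GFP per well by laser scanning cytometry and for cell viability by ATP luminescence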. Reading the numbers: GFP, % of control: higher = more GFP per well, higher productivity; viability (ATP), % of control: higher = more viable cells (more ATP). Hit rule: 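Called active when intracellular GFP, relative to negative control, is at or above 120%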.
This is one part, drawn at random, of about 50,000 reagents tested. Over the whole deposit, about 4,000 (8%) got an active call. 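Mouse siRNA library applied to hamster cells; one well for each siRNA.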 A number with no mark means an inactive call. The numbers tell different reagents against one gene apart. Reagent sequences are not shown.

target gene,siRNA no.,"GFP, % of control","viability (ATP), % of control"
Psen1,1,63.1,63.8
Psen1,2,79.7,36.5
Psen1,3,94,53.3
Or2t45,1,40.3,51.1
Or2t45,2,48.6,49.3
Or2t45,3,31.7,80.5
Ap2b1,1,84.5,39.3
Ap2b1,2,52.5,61.5
Ap2b1,3,70.8,75.5
Saxo4,1,76.8,49.8
Saxo4,2,45.3,68.2
Saxo4,3,89.5,88.8
Or2y1,1,95.7,76.7
Or2y1,2,76.7,69.6
Or2y1,3,56.3,77
Zfp764l1,1,74.6,84
Zfp764l1,2,57.3,66
Zfp764l1,3,76.7,78.4
Ugt8a,1,175 (active),124
Ugt8a,2,90.8,157
Ugt8a,3,109,110
Yod1,1,89.6,89.1
Yod1,2,105,46.6
Yod1,3,74.4,93.3
Cfap36,1,71.9,78.9
Cfap36,2,70.2,63.9
Cfap36,3,105,120
Krtap1-5,1,57.5,65.5
Krtap1-5,2,81.7,85.9
Krtap1-5,3,52.9,44.7
Or52b4,1,65.3,72.8
Or52b4,2,81.8,87.6
Or52b4,3,71,80.8
Pja2,1,55,26.6
Pja2,2,121 (active),76.2
Pja2,3,79.1,106
Sec14l3,1,40.7,54.5
Sec14l3,2,80.2,85.7
Sec14l3,3,48.7,66.5
Helz,1,63.1,76.8
Helz,2,83,81.7
Helz,3,53.2,40.1
Or55b3,1,38.7,54.3
Or55b3,2,75.3,99.2
Or55b3,3,54.8,78.2
Erbb3,1,143 (active),125
Erbb3,2,69.2,73.7
Erbb3,3,13.6,44.3
Trim28,1,64,75.3
Trim28,2,65.1,41.5
Kdm5c,1,80.4,103
Kdm5c,2,92.1,74.8
Kdm5c,3,114,76.1
Mycl,1,90.1,76.5
Mycl,2,73,75.6
Mycl,3,88.7,83.5
Crct1,1,75.9,56.5
Crct1,2,109,85.6
Crct1,3,69.9,72.9

Entries above whose target name starts with S or s:
target gene,siRNA no.,"GFP, % of control","viability (ATP), % of control"
Saxo4,1,76.8,49.8
Saxo4,2,45.3,68.2
Saxo4,3,89.5,88.8
Sec14l3,1,40.7,54.5
Sec14l3,2,80.2,85.7
Sec14l3,3,48.7,66.5
